Data from PMC3514159.
These are yes or no findings as the source states them, for the method shown. In cells and extracts the contact can be indirect. Some binding calls cover weakened binding; strength is not graded here.

Protein sequences, listed by entry. Tags and fused reporters are not part of them.
UniProt P09022: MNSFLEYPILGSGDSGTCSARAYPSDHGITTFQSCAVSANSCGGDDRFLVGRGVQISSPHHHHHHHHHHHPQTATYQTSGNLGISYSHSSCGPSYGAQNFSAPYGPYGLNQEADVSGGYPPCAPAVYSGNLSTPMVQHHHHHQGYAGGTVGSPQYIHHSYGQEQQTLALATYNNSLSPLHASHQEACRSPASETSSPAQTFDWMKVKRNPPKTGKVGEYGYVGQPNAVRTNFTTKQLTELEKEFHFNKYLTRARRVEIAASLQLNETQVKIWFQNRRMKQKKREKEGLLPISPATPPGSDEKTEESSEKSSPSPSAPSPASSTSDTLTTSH

Molecular target: VC155-Hoxa1 (mouse) (UniProt P09022)
Experiment: split reporter; BiFC in transfected COS7 cells: VN173, VN173-PBX1A, VC155 and VC155-Hoxa1 in combinations; Venus fluorescence

binding: binds
B1: VN173-PBX1A (protein, UniProt P40424-1 1-430)
chain: MDEQPRLMHSHAGVGMAGHPGLSQHLQDGAGGTEGEGGRKQDIGDILQQIMTITDQSLDEAQARKHALNCHRMKPALFNVLCEIKEKTVLSIRGAQEEEPTDPQLMRLDNMLLAEGVAGPEKGGGSAAAAAAAAASGGAGSDNSVEHSDYRAKLSQIRQIYHTELEKYEQACNEFTTHVMNLLREQSRTRPISPKEIERMVSIIHRKFSSIQMQLKQSTCEAVMILRSRFLDARRKRRNFNKQATEILNEYFYSHLSNPYPSEEAKEELAKKCGITVSQVSNWFGNKRIRYKKNIGKFQEEANIYAAKTAVTATNVSAHGSQANSPSTPNSAGSSSSFNMSNSGDLFMSVQSLNGDSYQGAQVGANVQSQVDTLRHVISQTGGYSDGLAASQMYSPQGISANGGWQDATTPSSVTSPTEGPGSVHSDTSN
